The results in this text go back to paper PMC4891089.

Protein sequences, listed by entry. Tags and fused reporters are not part of them.
UniProt P15976: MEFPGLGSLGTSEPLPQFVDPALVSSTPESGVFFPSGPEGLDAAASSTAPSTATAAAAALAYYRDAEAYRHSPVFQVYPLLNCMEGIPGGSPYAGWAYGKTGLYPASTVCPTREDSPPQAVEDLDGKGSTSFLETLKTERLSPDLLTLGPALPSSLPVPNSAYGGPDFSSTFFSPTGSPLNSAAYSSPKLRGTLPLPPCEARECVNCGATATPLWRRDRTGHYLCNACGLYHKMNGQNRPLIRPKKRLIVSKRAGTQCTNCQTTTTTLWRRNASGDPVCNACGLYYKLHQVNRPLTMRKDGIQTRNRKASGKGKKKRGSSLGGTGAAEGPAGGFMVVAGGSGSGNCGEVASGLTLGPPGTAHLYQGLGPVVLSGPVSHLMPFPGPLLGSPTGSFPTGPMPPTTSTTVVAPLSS
UniProt Q00403: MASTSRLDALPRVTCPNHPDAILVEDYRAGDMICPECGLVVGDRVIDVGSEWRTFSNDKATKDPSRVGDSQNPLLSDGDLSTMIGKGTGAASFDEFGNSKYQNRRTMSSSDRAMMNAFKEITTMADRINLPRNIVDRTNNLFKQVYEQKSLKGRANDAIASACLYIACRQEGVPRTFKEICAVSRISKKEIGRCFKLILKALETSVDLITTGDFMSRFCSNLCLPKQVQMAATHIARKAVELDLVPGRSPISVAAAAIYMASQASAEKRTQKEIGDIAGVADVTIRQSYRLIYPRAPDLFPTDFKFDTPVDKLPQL

The target in assay [1] is T1, SET7 (endogenous, MCF7 cells) (human (endogenous in MCF7)) (UniProt Q8WTS6).
T1 sequence: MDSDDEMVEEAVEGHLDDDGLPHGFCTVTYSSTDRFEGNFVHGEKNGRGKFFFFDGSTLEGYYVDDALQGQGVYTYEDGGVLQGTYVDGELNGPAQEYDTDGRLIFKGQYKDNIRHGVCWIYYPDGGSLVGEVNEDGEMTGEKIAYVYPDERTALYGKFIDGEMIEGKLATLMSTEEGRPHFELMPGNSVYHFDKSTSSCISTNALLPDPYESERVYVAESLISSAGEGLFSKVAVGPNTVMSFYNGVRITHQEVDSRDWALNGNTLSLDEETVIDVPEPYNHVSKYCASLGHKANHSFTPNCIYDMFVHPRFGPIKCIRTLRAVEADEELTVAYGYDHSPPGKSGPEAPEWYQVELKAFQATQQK
Description: co-IP; reciprocal co-immunoprecipitation of endogenous proteins from cell lysate (MCF7); antibodies overnight at 4°C, protein G or A agarose, immunoblot. On the technique in general: A western blot detects proteins with antibodies after separation by electrophoresis.

Assay [2] addresses GATA1 (endogenous, MCF7 cells) (human (endogenous in MCF7)) (UniProt P15976). Described as above.

Results are given in words; binding and its absence hold for the method and conditions named. Binding seen in cells or lysates may run through a third protein. Some binding calls cover weakened binding; strength is not graded here.

On to “GATA1 (endogenous, MCF7 cells) (from UniProt P15976 1-413)”, for which the binding result in assay [1] was “binds”. Regarding “TFIIB (endogenous) (from UniProt Q00403 1-316)”, the binding result in assay [2] and in assay [1] was “binds” throughout.
